# Assay results taken from US8129184B2, “Cancer stem cell antigen vaccines and methods” (Cedars-Sinai Medical Center, priority 2006, dated 2012).
# For at least one compound, name, drawing or mass did not settle the structure.
# Legend:
# [1] = test system: 9L sphere and monolayer cells; test: WST-1 viability of 9L neurospheres and monolayer cells exposed to chemotherapeutic agents; type: cell-based, rat; details: 125-1,000 μM, 2 days
# Description: To compare the differential proliferation rates and resistance to chemotherapeutic agents, 2,000 healthy 9L sphere and monolayer cells were exposed to either Dulbecco's modified Eagle's medium/F-12 medium containing 10% fetal bovine serum (FBS), or […] stock solution of Temozolamide or Carboplatin dissolved in PBS at concentrations of 1,000 μM, 500 μM, 250 μM, and 125 μM for 2 days. The viability of the cells was scored by measurement of the absorption of formazan dye (the amount of formazan dye formed directly correlates to the number of metabolically active cells) using the cellular proliferation assay WST-1 (Roche Molecular Biochemicals, Mannheim, Germany). Formazan was measured with the use of a microplate reader (Tecan) and spectrophotometer set at a wavelength of 440 nm and a reference wavelength of 890 nm. Cellular viability was determined by exposing cells to WST-1 for 4 hours, and calculating the percentage of viable cells. Proliferation was also assessed by using manual cell counting after 7 days in culture, with an initial cellular concentration of 100,000 cells/mL in a […] flask.
# [2] = test system: CD133 positive cells isolated from No. 66; test: WST-1 Cell Proliferation Assay, drug sensitivity of CD133 positive vs CD133 negative cells, No. 66; type: cell-based, human; details: No. 66, 48 hours, 10% FBS/F-12/DMEM
# Description: FIGS. 10A-10D are line graphs depicting drug sensitivity of CD133 positive cancer stem cells derived from patient No. 66. Tumor cells of No. 66 were cultured in FBS/F-12/DMEM medium for 4 passages. Both CD133 positive and negative tumor cells were collected by FACS sorting. 1×10^4 cells/well were plated in 96-well plate and treated with the indicated concentrations of VP-16, Taxol, temozolomide, and carboplatin for 48 hours in FBS/F-12/DMEM medium. * indicates p<0.05 compared to autologous CD133 negative cells. Data are representative of two independent experiments. (10A) VP16; (10B) Taxol; (10C) temozolomide; (10D) carboplatin.
# To determine whether CD133 positive cancer stem cells were resistant to chemotherapeutic agents, the WST-1 Cell Proliferation Assay was used to examine the drug sensitivity of CD133 positive cells and CD133 negative cells (both collected by FACS sorting from the three glioblastoma patients' primary cultured tumor cells as described above). CD133 positive and negative cells were exposed to conventional chemotherapeutic agents, temozolomide, carboplatin, VP-16 or taxol at various concentrations, for up to 48 hours in 10% FBS/F-12/DMEM culture medium. Temozolomide was supplied by the Schering-Plough Research Institute (Kenilworth, N.J.) and was dissolved in DMSO (Sigma Chemical Co., St Louis, Mo.) at 100 mM stock solution. […]
smiles,measurement,setting,value
Cn1nnc2c(C(N)=O)ncn2c1=O [temozolomide],resistance of neurospheres to the agent compared to monolayer cells,[1]; listed as Temodar,significantly more resistant
same,resistance of neurospheres to the agent compared to monolayer cells,[1]; listed as temozolamide,significantly (P<0.05) greater resistance
same,drug resistance of CD133 positive cells compared to autologous CD133 negative cells,[2],dramatic drug resistance
